Laboratory results from PMC12507517.
These are yes or no findings as the source states them, for the method shown. For some assays here: Binding seen in cells or lysates may run through a third protein. Some results given as binding are weak or reduced against the parent protein; the word gives no strength. For some assays here: Tags and fused reporters may be left off the sequences shown. Values belong to the substance of their own block, whether it stands above or below them.

Amino acid sequences for entries named in this document (tags omitted). Residues count along the entry.
UniProt P70210: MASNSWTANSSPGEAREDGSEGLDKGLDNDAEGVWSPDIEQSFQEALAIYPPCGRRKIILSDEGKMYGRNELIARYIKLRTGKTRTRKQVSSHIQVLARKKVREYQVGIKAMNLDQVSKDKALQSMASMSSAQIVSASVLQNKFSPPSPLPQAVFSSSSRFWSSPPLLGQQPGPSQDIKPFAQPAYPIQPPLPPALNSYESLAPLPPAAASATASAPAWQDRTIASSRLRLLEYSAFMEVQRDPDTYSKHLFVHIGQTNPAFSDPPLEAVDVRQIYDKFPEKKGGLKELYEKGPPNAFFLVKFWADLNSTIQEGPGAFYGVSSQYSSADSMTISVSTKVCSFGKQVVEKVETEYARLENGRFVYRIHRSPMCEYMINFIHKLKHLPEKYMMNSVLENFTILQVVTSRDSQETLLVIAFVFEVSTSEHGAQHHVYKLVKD
UniProt P97471: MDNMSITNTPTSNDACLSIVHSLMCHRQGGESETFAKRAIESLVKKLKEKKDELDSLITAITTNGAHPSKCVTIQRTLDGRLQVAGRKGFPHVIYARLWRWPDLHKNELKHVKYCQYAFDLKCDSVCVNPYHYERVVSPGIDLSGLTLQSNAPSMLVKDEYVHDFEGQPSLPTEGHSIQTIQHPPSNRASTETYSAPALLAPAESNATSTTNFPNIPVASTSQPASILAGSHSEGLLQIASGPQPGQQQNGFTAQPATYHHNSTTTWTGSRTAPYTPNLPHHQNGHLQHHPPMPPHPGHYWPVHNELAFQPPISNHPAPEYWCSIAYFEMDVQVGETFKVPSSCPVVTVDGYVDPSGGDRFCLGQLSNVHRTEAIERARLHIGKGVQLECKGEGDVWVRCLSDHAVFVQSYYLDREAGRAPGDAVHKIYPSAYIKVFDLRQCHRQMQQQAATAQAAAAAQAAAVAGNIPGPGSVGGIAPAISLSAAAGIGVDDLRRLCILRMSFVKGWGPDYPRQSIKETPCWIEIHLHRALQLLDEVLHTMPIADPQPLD
UniProt Q9WV30: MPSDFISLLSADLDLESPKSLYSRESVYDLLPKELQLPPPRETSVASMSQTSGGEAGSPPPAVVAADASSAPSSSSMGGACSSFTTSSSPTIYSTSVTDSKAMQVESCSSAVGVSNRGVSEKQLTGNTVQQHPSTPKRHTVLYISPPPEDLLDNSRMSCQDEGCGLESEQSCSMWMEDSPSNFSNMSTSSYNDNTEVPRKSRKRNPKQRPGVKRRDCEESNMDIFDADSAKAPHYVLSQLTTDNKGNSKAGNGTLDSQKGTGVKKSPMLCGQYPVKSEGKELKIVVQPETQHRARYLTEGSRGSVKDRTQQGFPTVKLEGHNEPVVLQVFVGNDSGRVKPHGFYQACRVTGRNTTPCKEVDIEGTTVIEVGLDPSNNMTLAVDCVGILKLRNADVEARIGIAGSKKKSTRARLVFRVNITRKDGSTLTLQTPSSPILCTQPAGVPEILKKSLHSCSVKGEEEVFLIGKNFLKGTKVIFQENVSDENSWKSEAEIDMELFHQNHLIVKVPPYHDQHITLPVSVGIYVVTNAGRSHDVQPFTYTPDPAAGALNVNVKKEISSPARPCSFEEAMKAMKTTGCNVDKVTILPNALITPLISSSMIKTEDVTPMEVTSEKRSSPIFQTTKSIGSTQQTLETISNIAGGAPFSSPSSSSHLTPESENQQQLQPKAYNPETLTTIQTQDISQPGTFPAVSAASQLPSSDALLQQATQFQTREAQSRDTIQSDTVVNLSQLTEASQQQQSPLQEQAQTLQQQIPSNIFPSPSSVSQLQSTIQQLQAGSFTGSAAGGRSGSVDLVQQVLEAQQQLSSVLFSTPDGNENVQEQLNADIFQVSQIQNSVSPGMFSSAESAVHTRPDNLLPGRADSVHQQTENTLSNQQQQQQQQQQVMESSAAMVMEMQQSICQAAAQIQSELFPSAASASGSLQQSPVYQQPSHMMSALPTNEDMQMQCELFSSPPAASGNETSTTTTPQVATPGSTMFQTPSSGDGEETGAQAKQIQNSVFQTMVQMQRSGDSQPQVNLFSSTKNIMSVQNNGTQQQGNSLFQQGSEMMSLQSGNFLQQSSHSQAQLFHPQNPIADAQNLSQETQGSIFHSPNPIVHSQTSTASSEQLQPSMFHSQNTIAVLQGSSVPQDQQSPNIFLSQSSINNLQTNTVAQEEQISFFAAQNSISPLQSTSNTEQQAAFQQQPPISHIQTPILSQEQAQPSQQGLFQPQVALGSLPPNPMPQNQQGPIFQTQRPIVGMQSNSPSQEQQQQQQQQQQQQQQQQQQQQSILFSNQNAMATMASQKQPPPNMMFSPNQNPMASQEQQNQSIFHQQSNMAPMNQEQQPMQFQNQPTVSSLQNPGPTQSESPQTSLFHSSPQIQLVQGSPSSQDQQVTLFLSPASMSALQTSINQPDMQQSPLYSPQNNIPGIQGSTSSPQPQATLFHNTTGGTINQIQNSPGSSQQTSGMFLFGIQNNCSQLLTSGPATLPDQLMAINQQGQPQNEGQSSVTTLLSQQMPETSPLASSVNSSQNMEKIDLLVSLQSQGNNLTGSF
UniProt Q04206: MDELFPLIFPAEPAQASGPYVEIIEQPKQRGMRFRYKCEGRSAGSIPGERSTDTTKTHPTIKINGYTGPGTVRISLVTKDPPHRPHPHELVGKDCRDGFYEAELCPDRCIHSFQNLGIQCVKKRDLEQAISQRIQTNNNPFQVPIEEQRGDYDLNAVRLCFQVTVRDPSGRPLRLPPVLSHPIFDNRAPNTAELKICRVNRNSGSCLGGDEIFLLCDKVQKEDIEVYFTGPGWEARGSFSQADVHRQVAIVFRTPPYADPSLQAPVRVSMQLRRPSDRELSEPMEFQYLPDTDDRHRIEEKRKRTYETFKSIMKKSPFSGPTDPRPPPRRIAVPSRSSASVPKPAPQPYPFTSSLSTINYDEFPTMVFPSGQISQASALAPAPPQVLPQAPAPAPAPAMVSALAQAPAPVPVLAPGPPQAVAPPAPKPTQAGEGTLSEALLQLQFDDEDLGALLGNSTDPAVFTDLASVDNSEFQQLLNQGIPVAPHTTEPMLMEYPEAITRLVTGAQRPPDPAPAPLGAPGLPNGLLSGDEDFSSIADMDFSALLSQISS
UniProt Q04207, residues 19-304: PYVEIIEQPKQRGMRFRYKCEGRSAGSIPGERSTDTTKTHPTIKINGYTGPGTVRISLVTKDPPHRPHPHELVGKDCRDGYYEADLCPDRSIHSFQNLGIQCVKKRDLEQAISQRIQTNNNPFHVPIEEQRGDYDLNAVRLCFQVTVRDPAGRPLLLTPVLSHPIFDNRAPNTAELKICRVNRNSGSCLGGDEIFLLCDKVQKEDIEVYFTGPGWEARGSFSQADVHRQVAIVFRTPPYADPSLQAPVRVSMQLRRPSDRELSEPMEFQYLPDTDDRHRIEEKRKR
UniProt P25799, residues 1-435: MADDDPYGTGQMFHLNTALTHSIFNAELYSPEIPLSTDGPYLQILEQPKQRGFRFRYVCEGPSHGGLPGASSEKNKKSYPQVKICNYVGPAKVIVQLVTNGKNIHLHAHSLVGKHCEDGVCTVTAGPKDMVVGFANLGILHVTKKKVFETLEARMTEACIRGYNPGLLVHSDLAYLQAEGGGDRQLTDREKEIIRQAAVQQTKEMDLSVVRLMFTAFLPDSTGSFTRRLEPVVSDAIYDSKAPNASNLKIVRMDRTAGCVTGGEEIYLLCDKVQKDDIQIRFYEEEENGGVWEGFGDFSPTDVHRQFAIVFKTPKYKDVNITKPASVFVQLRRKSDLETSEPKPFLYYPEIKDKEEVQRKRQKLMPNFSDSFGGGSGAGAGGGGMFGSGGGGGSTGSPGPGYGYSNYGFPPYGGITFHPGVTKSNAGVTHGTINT

Legend:
FLAG-tagged Nfatc1 [1] = molecular target: T1, FLAG-tagged Nfatc1 (UniProt O88942); test: co-IP; HEK293T co-transfected with HA-RelA and a FLAG-tagged cofactor for 24 h, mouse TNF-α 30 min; lysis in 25 mM Tris-HCl pH 7.5, 150 mM NaCl, 5% glycerol, 1% NP-40; anti-FLAG M2 agarose 2 h at 4°C; western blot
T1 sequence: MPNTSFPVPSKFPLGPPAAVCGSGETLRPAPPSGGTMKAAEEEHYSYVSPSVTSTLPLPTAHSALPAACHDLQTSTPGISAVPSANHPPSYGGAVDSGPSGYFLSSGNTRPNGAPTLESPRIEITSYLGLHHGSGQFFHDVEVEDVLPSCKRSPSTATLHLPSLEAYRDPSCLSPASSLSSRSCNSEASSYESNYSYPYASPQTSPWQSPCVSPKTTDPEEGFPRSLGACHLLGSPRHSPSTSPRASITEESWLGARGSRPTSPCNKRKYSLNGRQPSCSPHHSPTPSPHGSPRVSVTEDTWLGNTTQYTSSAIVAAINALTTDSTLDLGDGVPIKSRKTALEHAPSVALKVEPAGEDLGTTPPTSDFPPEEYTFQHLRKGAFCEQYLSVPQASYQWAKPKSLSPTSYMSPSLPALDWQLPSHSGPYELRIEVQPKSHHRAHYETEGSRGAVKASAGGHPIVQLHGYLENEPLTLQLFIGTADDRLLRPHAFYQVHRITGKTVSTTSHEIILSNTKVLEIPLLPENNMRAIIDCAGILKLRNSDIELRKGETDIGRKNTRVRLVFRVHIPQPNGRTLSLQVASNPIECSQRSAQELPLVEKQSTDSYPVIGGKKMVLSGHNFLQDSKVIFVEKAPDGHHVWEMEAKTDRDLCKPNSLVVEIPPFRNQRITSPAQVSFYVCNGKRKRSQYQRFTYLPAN

FLAG-tagged Tead3 = FLAG-tagged Tead3 (UniProt P70210); test: as above
FLAG-tagged Smad4 = FLAG-tagged Smad4 (UniProt P97471); test: as above
FLAG-tagged Nfat5 = FLAG-tagged Nfat5 (UniProt Q9WV30); test: as above
FLAG-tagged Cux1 = molecular target: T2, FLAG-tagged Cux1 (UniProt P53564); test: as above
T2 sequence: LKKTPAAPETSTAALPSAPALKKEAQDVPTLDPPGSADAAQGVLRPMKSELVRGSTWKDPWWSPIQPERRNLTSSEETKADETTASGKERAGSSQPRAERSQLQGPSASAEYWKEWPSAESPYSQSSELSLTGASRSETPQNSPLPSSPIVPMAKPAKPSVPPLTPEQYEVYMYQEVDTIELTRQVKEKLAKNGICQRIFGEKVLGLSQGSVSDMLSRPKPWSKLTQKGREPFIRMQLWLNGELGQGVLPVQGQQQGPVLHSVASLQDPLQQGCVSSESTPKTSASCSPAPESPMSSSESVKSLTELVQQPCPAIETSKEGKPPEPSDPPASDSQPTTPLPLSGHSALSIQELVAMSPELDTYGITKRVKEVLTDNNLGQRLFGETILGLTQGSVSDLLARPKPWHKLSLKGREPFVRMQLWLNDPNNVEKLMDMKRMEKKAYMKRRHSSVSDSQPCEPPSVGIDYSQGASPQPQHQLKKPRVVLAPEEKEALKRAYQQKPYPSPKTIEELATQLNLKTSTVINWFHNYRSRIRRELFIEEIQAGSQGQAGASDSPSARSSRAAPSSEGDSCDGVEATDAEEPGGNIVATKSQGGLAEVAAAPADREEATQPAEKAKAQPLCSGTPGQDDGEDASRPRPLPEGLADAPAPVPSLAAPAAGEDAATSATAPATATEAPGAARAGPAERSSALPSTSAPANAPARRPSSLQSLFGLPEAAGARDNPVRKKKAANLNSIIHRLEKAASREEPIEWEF

[2] = molecular target: Full-length His-RelA (1-551) (UniProt Q04206); test: SEC; His-p50 and His-RelA mixed 1:1 at 0.1 mg/mL, 1 h at room temperature, then HiLoad 16/60 Superdex 200 in 25 mM Tris-HCl pH 7.5, 200 mM NaCl, 5% glycerol, 1 mM DTT; both purified
FLAG-tagged Nfatc1 [3] = molecular target: T1, FLAG-tagged Nfatc1; test: co-IP; FLAG-Nfatc1 pulled down, endogenous RelA detected (Supplementary Fig. S3C)
untagged RelA(19–304) = untagged RelA(19–304) (UniProt Q04207); test: crystal structure; RelA(19-304) at ~150 micromolar with κB-DNA duplex 1:1.2; hanging drop at 18°C, MES pH 5.5, 14% PEG3350; molecular replacement; both purified

binding (FLAG-tagged Nfatc1 [1]): binds weakly
binding (FLAG-tagged Tead3): binds weakly
binding (FLAG-tagged Smad4): binds weakly
binding (FLAG-tagged Nfat5): binds weakly
binding (FLAG-tagged Cux1): binds weakly
Substance: HA-tagged RelA (from UniProt Q04206 1-551)

binding [2]: binds
Substance: His-tagged p50 (1-435) (from UniProt P25799 1-435) (domain or fragment)

binding (FLAG-tagged Nfatc1 [3]): binds
Substance: endogenous RelA (from UniProt Q04206 1-551)

binding (untagged RelA(19–304)): binds
Substance: untagged RelA(19–304) (from UniProt Q04207 19-304) (domain or fragment)
